# In PMC12063666:
# No constants are given. Whether binding was seen depends on the method and setting. Some binding calls cover weakened binding; strength is not graded here.
# T1: cognate myosin heavy chain fragment (comprising residues 709 to 840) (UniProt P05661)
# T1 sequence: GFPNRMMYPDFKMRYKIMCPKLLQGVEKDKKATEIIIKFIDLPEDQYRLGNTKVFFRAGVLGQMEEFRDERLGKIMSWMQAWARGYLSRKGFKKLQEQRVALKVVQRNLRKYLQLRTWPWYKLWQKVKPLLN
# B1: Mlc1 (myosin light chain 1) (protein, UniProt P06742 1-155)
# chain: MADVPKREVENVEFVFEVMGSPGEGIDAVDLGDALRALNLNPTLALIEKLGGTKKRNEKKIKLDEFLPIYSQVKKEKEQGCYEDFIECLKLYDKEENGTMLLAELQHALLALGESLDDEQVETLFADCMDPEDDEGFIPYSQFVQRLMSDPVVFD
# B2: Mlc2 (myosin light chain 2) (protein, UniProt P18432 1-222)
# chain: MADEKKKVKKKKTKEEGGTSETASEAASEAATPAPAATPAPAASATGSKRASGGSRGSRKSKRAGSSVFSVFSQKQIAEFKEAFQLMDADKDGIIGKNDLRAAFDSVGKIANDKELDAMLGEASGPINFTQLLTLFANRMATSGANDEDEVVIAAFKTFDNDGLIDGDKFREMLMNFGDKFTMKEVDDAYDQMVIDDKNQIDTAALIEMLTGKGEEEEEEAA
# Target: T1, cognate myosin heavy chain fragment (comprising residues 709 to 840)
# Assay: co-expression and co-purification; three proteins coexpressed in E. coli as His14-ScSUMO and His14-NEDD8 fusions, captured on Ni-chelate beads, eluted by tag cleavage with Ulp1 and NEDP1
row,binding,Binder
1,binds,B1
2,binds,B2
